Data as given in US20130183315A1.
These are yes or no findings as the source states them, for the method shown. A result given as binding can be weak or reduced; the word gives no strength.

Legend:
[1] = molecular target: cynomologus monkey OX40 expressed on the surface of activated lymphocytes (cynomolgus monkey); test: flow cytometry on PHA/IL-2 activated cynomolgus PBMCs, biotinylated antibody
[2] = molecular target: cynomologus monkey OX40 expressed on the surface of activated lymphocytes (cynomolgus monkey); test: flow cytometry on PHA/IL-2 activated cynomolgus PBMC, biotinylated antibody, labelled streptavidin detection

B1: chimeric 1D4 antibody (antibody, human IgG1, kappa, V domains shown)
VH: QVTLKESGPGILQPSQTLSLTCSFSGFSLSTSGMGVGWIRQPSGKGLEWLAHIWWDDDKYYNTALKSGLTISKDTSKNQVFLKIASVDTTDTATYYCARIDWDGFAYWGQGTLVTVSS
VL: QIVLTQSPAILSASPGEKVTMTCRASSSVSYMHWYQQKPGSSPKPWIYATSNLASGVPARFSGSGSGTSYSLTINRVEAEDAATYYCQQWSSNPWTFGGGTKLEIKR
- binding [1]: binds
- binding [2]: binds
